In article doi:10.1101/2024.03.27.587014 one finds binding data, which are given here for two substances.

By UniProt entry, the sequences of proteins in these tests, tags left out.
UniProt O81098: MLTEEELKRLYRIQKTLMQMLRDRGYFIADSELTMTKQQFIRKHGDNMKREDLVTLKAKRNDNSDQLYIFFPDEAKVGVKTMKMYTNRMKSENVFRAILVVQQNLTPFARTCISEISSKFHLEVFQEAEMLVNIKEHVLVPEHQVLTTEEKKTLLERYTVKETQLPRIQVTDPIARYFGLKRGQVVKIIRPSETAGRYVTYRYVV

These are yes or no findings as the source states them, for the method shown. Binding seen in cells or lysates may run through a third protein. Here binding means that the protein was enriched with, or labelled near, the bait; the list need not be complete.

The target of this experiment is T1, GS^rhino-PFD6 (Arabidopsis) (UniProt Q2HIK4).
T1 sequence: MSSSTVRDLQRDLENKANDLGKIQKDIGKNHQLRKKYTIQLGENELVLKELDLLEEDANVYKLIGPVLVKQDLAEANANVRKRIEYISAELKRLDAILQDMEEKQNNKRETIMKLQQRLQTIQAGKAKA
In words: affinity purification with mass spectrometry.

Turning to NRPB5A (from UniProt O81098 1-205), the binding result is “binds”. For NRPB5C, the binding entry was “binds”.
